The record followed here is article PMC4055408.

Assay [1] addresses TFII-I Δ90 (TFII-I mutant protein lacking the first 90 residues) (human) (UniProt P78347). The assay can be described thus: co-IP; HeLa Tet-On cells transfected with differentially tagged TFII-I plasmids; IgG IP and anti-Myc IP, immunoblot. (A western blot detects proteins with antibodies after separation by electrophoresis.)
Assay [2] concerns the target TFII-I^270–667 fragment (human) (UniProt P78347). The assay can be described thus: SEC; single purified TFII-I fragments fractionated on Superdex 200; apparent molecular mass against standards; monomer or homodimer; both purified. (SEC sorts molecules by how far they enter the pores of the column.)
For assay [3], the target named is TFII-I, endogenous (human (endogenous in 293T and U2OS)) (UniProt P78347). The assay can be described thus: co-IP; U2OS cells, untreated or UV 60 J/m^2, fixed with 0.25% formaldehyde; anti-PCNA IP or anti-TFII-I IP; siControl or siTFII-I with Myc-TFII-I plasmids; cross-links reversed, immunoblot.

No constants are given. Whether binding was seen depends on the method and setting. For some of these results: In cells and extracts the contact can be indirect.

B1: TFII-I Δ90 (TFII-I mutant protein lacking the first 90 residues) (domain or fragment, UniProt P78347 91-998)
chain: HKMKSTTQANRMSVDAVEIETLRKTVEDYFCFCYGKALGKSTVVPVPYEKMLRDQSAVVVQGLPEGVAFKHPENYDLATLKWILENKAGISFIIKRPFLEPKKHVGGRVMVTDADRSILSPGGSCGPIKVKTEPTEDSGISLEMAAVTVKEESEDPDYYQYNIQAGPSETDDVDEKQPLSKPLQGSHHSSEGNEGTEMEVPAEDSTQHVPSETSEDPEVEVTIEDDDYSPPSKRPKANELPQPPVPEPANAGKRKVREFNFEKWNARITDLRKQVEELFERKYAQAIKAKGPVTIPYPLFQSHVEDLYVEGLPEGIPFRRPSTYGIPRLERILLAKERIRFVIKKHELLNSTREDLQLDKPASGVKEEWYARITKLRKMVDQLFCKKFAEALGSTEAKAVPYQKFEAHPNDLYVEGLPENIPFRSPSWYGIPRLEKIIQVGNRIKFVIKRPELLTHSTTEVTQPRTNTPVKEDWNVRITKLRKQVEEIFNLKFAQALGLTEAVKVPYPVFESNPEFLYVEGLPEGIPFRSPTWFGIPRLERIVRGSNKIKFVVKKPELVISYLPPGMASKINTKALQSPKRPRSPGSNSKVPEIEVTVEGPNNNNPQTSAVRTPTQTNGSNVPFKPRGREFSFEAWNAKITDLKQKVENLFNEKCGEALGLKQAVKVPFALFESFPEDFYVEGLPEGVPFRRPSTFGIPRLEKILRNKAKIKFIIKKPEMFETAIKESTSSKSPPRKINSSPNVNTTASGVEDLNIIQVTIPDDDNERLSKVEKARQLREQVNDLFSRKFGEAIGMGFPVKVPYRKITINPGCVVVDGMPPGVSFKAPSYLEISSMRRILDSAEFIKFTVIRPFPGLVINNQLVDQSESEGPVIQESAEPSQLEVPATEEIKETDGSSQIKQEPDPTW
Take B1: the binding result in assay [1] was “no binding”.

B2: TFII-I^270–667 fragment (domain or fragment, UniProt P78347 270-667)
chain: SKPLQGSHHSSEGNEGTEMEVPAEDSTQHVPSETSEDPEVEVTIEDDDYSPPSKRPKANELPQPPVPEPANAGKRKVREFNFEKWNARITDLRKQVEELFERKYAQAIKAKGPVTIPYPLFQSHVEDLYVEGLPEGIPFRRPSTYGIPRLERILLAKERIRFVIKKHELLNSTREDLQLDKPASGVKEEWYARITKLRKMVDQLFCKKFAEALGSTEAKAVPYQKFEAHPNDLYVEGLPENIPFRSPSWYGIPRLEKIIQVGNRIKFVIKRPELLTHSTTEVTQPRTNTPVKEDWNVRITKLRKQVEEIFNLKFAQALGLTEAVKVPYPVFESNPEFLYVEGLPEGIPFRSPTWFGIPRLERIVRGSNKIKFVVKKPELVISYLPPGMASKINTKALQ
As to B2, in assay [2], the binding entry was “no binding”.

B3: Pol ι, endogenous (enzyme, UniProt Q9UNA4 1-740)
chain: MEKLGVEPEEEGGGDDDEEDAEAWAMELADVGAAASSQGVHDQVLPTPNASSRVIVHVDLDCFYAQVEMISNPELKDKPLGVQQKYLVVTCNYEARKLGVKKLMNVRDAKEKCPQLVLVNGEDLTRYREMSYKVTELLEEFSPVVERLGFDENFVDLTEMVEKRLQQLQSDELSAVTVSGHVYNNQSINLLDVLHIRLLVGSQIAAEMREAMYNQLGLTGCAGVASNKLLAKLVSGVFKPNQQTVLLPESCQHLIHSLNHIKEIPGIGYKTAKCLEALGINSVRDLQTFSPKILEKELGISVAQRIQKLSFGEDNSPVILSGPPQSFSEEDSFKKCSSEVEAKNKIEELLASLLNRVCQDGRKPHTVRLIIRRYSSEKHYGRESRQCPIPSHVIQKLGTGNYDVMTPMVDILMKLFRNMVNVKMPFHLTLLSVCFCNLKALNTAKKGLIDYYLMPSLSTTSRSGKHSFKMKDTHMEDFPKDKETNRDFLPSGRIESTRTRESPLDTTNFSKEKDINEFPLCSLPEGVDQEVFKQLPVDIQEEILSGKSREKFQGKGSVSCPLHASRGVLSFFSKKQMQDIPINPRDHLSSSKQVSSVSPCEPGTSGFNSSSSSYMSSQKDYSYYLDNRLKDERISQGPKEPQGFHFTNSNPAVSAFHSFPNLQSEQLFSRNHTTDSHKQTVATDSHEGLTENREPDSVDEKITFPSDIDPQVFYELPEAVQKELLAEWKRAGSDFHIGHK
Consider B3, for which, in assay [3], the binding entry is reported as “no binding”.

B4: Pol η, endogenous (enzyme, UniProt Q9Y253 1-713)
chain: MATGQDRVVALVDMDCFFVQVEQRQNPHLRNKPCAVVQYKSWKGGGIIAVSYEARAFGVTRSMWADDAKKLCPDLLLAQVRESRGKANLTKYREASVEVMEIMSRFAVIERASIDEAYVDLTSAVQERLQKLQGQPISADLLPSTYIEGLPQGPTTAEETVQKEGMRKQGLFQWLDSLQIDNLTSPDLQLTVGAVIVEEMRAAIERETGFQCSAGISHNKVLAKLACGLNKPNRQTLVSHGSVPQLFSQMPIRKIRSLGGKLGASVIEILGIEYMGELTQFTESQLQSHFGEKNGSWLYAMCRGIEHDPVKPRQLPKTIGCSKNFPGKTALATREQVQWWLLQLAQELEERLTKDRNDNDRVATQLVVSIRVQGDKRLSSLRRCCALTRYDAHKMSHDAFTVIKNCNTSGIQTEWSPPLTMLFLCATKFSASAPSSSTDITSFLSSDPSSLPKVPVTSSEAKTQGSGPAVTATKKATTSLESFFQKAAERQKVKEASLSSLTAPTQAPMSNSPSKPSLPFQTSQSTGTEPFFKQKSLLLKQKQLNNSSVSSPQQNPWSNCKALPNSLPTEYPGCVPVCEGVSKLEESSKATPAEMDLAHNSQSMHASSASKSVLEVTQKATPNPSLLAAEDQVPCEKCGSLVPVWDMPEHMDYHFALELQKSFLQPHSSNPQVVSAVSHQGKRNPKSPLACTNKRPRPEGMQTLESFFKPLTH
B4: the binding entry in assay [3] is reported as “no binding”.
